# Laboratory results from patent publication US20250041284A1, “TREATMENT OF NEUROLOGICAL DISORDERS” (Praxis Precision Medicines, Inc., priority 2022, published 2025).
# Assay: Protective index (sLMA TC50 divided by MES EC50)
Compound,protective index (plasma) [×],protective index (based on calculated free plasma concentrations)
"NC(=O)N1c2ccccc2C=Cc2ccccc21 [Carbamazepine, carbamazepine]",3.4,
CCOC(F)(F)c1nnc2ccc(-c3cnc(OCC(F)(F)F)c(F)c3)cn12 [Compound 1],,approximately 16 fold
